Laboratory results from PMC10713531.
No constants are given. Whether binding was seen depends on the method and setting. In cells and extracts the contact can be indirect. Some binding calls cover weakened binding; strength is not graded here.

Amino acid sequences for entries named in this document (tags omitted). A change or cut given only in a name is not applied to a line headed by its entry.
UniProt Q14160: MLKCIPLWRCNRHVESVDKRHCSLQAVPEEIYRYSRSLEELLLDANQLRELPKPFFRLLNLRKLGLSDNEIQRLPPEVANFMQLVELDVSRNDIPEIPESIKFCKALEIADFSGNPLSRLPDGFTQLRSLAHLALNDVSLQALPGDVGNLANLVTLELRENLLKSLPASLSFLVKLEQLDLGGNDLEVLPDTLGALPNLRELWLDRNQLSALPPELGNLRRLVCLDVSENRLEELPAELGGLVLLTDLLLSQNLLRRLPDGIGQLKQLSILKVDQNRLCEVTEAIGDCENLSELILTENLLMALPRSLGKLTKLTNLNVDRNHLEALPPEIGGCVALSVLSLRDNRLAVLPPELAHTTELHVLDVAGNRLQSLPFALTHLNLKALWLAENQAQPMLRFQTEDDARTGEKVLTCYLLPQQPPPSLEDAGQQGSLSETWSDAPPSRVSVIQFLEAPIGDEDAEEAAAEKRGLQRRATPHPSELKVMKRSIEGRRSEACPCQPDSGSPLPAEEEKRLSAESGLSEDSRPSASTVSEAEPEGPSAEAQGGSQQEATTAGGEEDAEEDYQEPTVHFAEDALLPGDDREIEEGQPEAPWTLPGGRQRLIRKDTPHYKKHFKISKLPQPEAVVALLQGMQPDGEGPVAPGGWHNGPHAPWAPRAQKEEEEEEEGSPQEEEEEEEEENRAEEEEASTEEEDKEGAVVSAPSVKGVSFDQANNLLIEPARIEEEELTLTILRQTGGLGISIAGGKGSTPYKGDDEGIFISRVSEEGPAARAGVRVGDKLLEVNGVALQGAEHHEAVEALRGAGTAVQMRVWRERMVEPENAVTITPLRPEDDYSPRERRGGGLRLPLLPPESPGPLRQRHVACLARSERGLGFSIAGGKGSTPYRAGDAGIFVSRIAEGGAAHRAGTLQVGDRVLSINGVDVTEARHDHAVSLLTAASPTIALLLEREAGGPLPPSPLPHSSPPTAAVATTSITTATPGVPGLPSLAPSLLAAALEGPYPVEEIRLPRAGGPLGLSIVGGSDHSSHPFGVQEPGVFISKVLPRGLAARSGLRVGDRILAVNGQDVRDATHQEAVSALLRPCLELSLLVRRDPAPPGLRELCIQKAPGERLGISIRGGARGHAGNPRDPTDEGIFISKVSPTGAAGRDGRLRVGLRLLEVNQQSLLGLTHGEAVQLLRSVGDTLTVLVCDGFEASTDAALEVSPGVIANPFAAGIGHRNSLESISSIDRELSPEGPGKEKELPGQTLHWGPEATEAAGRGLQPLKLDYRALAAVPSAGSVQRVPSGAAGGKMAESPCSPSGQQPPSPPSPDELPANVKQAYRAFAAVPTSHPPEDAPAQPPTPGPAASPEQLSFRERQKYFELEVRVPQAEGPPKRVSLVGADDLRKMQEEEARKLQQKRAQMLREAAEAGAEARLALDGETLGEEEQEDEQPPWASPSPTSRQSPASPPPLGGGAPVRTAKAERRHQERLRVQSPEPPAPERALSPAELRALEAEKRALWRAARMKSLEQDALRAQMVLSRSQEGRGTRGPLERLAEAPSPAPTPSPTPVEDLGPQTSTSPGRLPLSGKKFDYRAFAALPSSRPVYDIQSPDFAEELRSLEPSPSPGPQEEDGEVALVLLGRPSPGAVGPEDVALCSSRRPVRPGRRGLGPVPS
UniProt O70511: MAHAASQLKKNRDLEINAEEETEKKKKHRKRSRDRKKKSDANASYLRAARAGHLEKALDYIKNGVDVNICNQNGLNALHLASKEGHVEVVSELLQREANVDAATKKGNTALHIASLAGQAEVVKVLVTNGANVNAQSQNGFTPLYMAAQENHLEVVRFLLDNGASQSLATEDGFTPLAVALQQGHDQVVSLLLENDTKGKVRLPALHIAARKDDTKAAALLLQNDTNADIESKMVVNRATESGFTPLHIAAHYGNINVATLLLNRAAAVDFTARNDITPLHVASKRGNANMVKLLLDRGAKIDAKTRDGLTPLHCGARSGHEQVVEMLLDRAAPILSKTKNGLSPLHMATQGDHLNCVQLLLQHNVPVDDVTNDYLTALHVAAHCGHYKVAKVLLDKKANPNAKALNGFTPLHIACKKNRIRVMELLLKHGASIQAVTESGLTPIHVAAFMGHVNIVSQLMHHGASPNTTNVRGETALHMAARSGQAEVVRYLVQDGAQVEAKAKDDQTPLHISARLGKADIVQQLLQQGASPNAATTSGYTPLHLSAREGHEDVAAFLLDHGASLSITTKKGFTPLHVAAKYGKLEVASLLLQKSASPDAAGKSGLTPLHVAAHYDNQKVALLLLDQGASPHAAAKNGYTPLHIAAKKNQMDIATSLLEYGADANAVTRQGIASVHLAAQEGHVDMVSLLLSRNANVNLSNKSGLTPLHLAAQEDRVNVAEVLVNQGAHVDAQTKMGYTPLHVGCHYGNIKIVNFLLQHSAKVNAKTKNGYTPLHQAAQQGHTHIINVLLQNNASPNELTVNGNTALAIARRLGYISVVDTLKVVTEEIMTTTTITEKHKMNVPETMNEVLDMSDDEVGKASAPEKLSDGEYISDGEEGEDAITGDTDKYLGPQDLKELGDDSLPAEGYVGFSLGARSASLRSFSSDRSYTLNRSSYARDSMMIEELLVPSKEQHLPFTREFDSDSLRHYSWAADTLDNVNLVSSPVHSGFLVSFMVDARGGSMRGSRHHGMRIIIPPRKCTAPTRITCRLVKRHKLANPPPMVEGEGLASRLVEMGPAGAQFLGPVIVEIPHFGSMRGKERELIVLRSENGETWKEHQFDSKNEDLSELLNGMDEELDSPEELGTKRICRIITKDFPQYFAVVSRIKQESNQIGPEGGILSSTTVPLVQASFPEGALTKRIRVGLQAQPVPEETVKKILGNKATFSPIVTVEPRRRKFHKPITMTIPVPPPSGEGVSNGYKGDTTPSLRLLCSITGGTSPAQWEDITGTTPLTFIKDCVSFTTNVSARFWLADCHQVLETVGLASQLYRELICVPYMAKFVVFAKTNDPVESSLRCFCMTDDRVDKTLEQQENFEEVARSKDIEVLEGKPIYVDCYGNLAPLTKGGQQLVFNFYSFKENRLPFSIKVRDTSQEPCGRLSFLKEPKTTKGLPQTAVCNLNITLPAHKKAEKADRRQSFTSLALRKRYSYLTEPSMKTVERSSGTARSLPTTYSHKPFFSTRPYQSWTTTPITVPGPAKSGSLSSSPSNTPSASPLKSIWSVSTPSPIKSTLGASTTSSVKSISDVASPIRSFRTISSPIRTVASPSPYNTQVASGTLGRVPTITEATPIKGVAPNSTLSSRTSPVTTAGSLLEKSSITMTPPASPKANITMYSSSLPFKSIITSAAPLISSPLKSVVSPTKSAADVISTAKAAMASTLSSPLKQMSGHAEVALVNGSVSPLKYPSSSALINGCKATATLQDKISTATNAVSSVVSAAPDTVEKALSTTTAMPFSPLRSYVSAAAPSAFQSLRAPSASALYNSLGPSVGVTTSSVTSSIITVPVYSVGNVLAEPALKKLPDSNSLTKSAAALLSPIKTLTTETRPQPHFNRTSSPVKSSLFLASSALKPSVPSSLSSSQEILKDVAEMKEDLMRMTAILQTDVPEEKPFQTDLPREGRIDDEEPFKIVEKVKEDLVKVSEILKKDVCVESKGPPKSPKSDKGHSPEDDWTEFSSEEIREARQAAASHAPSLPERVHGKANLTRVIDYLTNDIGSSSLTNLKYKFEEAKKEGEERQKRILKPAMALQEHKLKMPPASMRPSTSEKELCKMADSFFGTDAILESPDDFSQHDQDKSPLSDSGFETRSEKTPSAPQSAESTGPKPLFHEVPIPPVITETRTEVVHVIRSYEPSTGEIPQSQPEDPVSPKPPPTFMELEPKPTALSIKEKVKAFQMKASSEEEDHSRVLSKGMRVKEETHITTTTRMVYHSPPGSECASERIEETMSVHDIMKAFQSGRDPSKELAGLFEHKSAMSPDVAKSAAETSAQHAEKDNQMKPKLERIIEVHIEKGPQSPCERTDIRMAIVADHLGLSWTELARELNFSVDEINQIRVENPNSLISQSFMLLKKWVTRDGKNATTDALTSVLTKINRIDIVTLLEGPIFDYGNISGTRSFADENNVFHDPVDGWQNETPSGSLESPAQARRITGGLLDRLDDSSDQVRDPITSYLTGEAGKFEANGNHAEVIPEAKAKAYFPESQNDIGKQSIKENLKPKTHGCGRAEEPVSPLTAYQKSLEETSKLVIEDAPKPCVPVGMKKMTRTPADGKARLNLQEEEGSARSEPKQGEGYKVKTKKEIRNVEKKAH

Experiments:
[1] = molecular target: Scrib-Flag (flag-tagged SCRIB) (human) (UniProt Q14160); assay: co-IP; HEK293T cells co-transfected with Scrib-Flag and AnkG270-EGFP or pEGFPN1, lysed after 48 h; immunoprecipitated by Flag antibody, blotted for GFP
[2] = molecular target: AnkG270-EGFP (GFP-tagged AnkG) (UniProt O70511); assay: co-IP; HEK293T cells co-transfected with AnkG270-EGFP and Scrib-Flag or dTomato-fused truncated Scrib, lysed after 48 h; AnkG270-EGFP immunoprecipitated by GFP antibody, blotted for Flag or mCherry

Substance: AnkG270-EGFP (GFP-tagged AnkG) (from UniProt O70511-1 1-2622)
- binding [1]: binds

Substance: Scrib-Flag (flag-tagged SCRIB) (from UniProt Q14160 1-1655)
- binding [2]: binds
